Laboratory results: the supplement of paper PMC3334620
In all, about 33,000 sequences were measured (“E-score (-0.5 to 0.5)”: median about -0.015, highest 2% from about 0.3 on). This is one part of the list.

Target: T1, Abf1 (UniProt P14164)
T1 sequence: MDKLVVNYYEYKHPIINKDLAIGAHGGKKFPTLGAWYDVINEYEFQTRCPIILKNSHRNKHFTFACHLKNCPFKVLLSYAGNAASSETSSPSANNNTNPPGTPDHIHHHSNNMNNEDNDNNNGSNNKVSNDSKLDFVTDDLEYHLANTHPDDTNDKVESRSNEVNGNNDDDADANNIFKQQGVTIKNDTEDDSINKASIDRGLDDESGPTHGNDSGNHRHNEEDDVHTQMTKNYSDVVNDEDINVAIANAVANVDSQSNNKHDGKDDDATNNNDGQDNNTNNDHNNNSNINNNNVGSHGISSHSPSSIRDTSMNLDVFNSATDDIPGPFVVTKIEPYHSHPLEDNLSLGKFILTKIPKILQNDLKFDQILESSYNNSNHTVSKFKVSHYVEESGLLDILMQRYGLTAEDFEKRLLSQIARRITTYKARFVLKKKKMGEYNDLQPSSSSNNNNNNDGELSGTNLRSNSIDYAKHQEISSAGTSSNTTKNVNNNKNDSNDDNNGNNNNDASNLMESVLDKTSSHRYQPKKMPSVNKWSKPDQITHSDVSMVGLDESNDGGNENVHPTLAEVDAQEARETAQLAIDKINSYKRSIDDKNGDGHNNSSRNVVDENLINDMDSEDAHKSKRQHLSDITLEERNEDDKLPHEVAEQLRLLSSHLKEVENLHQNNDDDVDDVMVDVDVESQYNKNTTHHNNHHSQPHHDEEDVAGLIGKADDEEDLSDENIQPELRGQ
Assay: PBM E-score (8-mer binding enrichment) (E-score (-0.5 to 0.5)); higher = stronger / more preferred TF binding
Conditions: protein concentration: 200 nM; construct: GST-full length
Procedure, shortened: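 Universal all-10-mer Agilent arrays, double-stranded by primer extension on fresh or once-stripped slides, were probed with about 100-200 nM GST-tagged yeast transcription factors made by PURExpress. Fluorescent anti-GST detected bound protein, and masliner normalised the scans. E-scores from the Universal PBM Analysis Suite were given to each ungapped eight-base word pooled with its reverse complement.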

Compared with TAGCGCCA, ACTTCAGA is lower in “PBM E-score” value: -0.00189 for the first, -0.00535 for the second.

Compared with CCCTCCGC, AATACACA is higher in “PBM E-score” value: -0.354 for the first, 0.081 for the second.

Going from GGCATCGA to CGGCCCAC, the “PBM E-score” value falls from -0.0852 to -0.208.

Compared with GGAATAAC, ATGTGGAA is higher in “PBM E-score” value: -0.278 for the first, 0.0581 for the second.

First: CCTCTTAG
Second: CTGGTTAA
The “PBM E-score” value of the first is higher: 0.11 for the first, 0.108 for the second.

Compared with CTCGTACA, TAGTTTGA is lower in “PBM E-score” value: 0.342 for the first, 0.219 for the second.

Compared with CACTCGCG, TATTCACA is higher in “PBM E-score” value: 0.0197 for the first, 0.16 for the second.

First: GCTGGGCC
Second: CGGGAATC
The “PBM E-score” value of the first is lower: -0.252 for the first, -0.14 for the second.

Going from AGACGAGG to CCTCCTTA, the “PBM E-score” value falls from -0.0718 to -0.129.

First: AGTAATTA
Second: GAGAAACC
The “PBM E-score” value of the first is higher: 0.0132 for the first, -0.13 for the second.

First: ACCTATGG
Second: CTATCCCA
The “PBM E-score” value of the first is higher: -0.00968 for the first, -0.119 for the second.

First: AACCGGTG
Second: ACTGTTCG
The “PBM E-score” value of the first is lower: 0.00684 for the first, 0.0935 for the second.

Going from ATAACGCC to ATCGCGTA, the “PBM E-score” value rises from -0.0918 to 0.0704.

First: AACTCTTC
Second: TAAACGTA
The “PBM E-score” value of the first is lower: -0.0922 for the first, 0.284 for the second.

First: ACGTGTGA
Second: GCGATTAA
The “PBM E-score” value of the first is higher: 0.213 for the first, 0.111 for the second.

First: CGTGTCAA
Second: CAGTCCCG
The “PBM E-score” value of the first is higher: 0.0475 for the first, -0.263 for the second.

Going from GAGGCGTA to CGTGCTAG, the “PBM E-score” value rises from -0.0924 to -0.0144.

First: AGTAGCTG
Second: AACTATAT
The “PBM E-score” value of the first is lower: -0.21 for the first, 0.205 for the second.

First: AAGATTTC
Second: ACCATTTG
The “PBM E-score” value of the first is higher: -0.00459 for the first, -0.049 for the second.

Going from ATCATCTG to AGCTTGAA, the “PBM E-score” value falls from 0.127 to -0.106.

Going from GAACTAAA to TCAGACCA, the “PBM E-score” value rises from -0.112 to -0.0912.

Compared with CCTTATGA, GGAGCGCA is lower in “PBM E-score” value: 0.0433 for the first, -0.284 for the second.

First: CAAGTTAC
Second: CCTTTCAG
The “PBM E-score” value of the first is higher: 0.0862 for the first, -0.0364 for the second.

Going from ATAGGCGG to GGACAGAC, the “PBM E-score” value falls from -0.0983 to -0.166.

First: CGCGACAC
Second: ATTTTACC
The “PBM E-score” value of the first is lower: 0.0401 for the first, 0.11 for the second.

Going from CGCTTCCA to GTTTGGAA, the “PBM E-score” value rises from -0.0645 to 0.0998.

Compared with CGTGAGCA, CAATACCG is lower in “PBM E-score” value: 0.078 for the first, -0.124 for the second.

Compared with ACTTCTCA, GACAGTGC is higher in “PBM E-score” value: 0.119 for the first, 0.169 for the second.

Going from AGTGCGTA to GAAGGATC, the “PBM E-score” value rises from -0.179 to -0.131.

Going from ACCACGTA to CGAGGAAG, the “PBM E-score” value falls from 0.155 to -0.187.

First: CCTTAACG
Second: CACCACCA
The “PBM E-score” value of the first is higher: 0.0166 for the first, -0.164 for the second.

First: AAATGCGG
Second: GCCACATA
The “PBM E-score” value of the first is higher: 0.146 for the first, 0.00455 for the second.

Compared with CGCTTACC, GTTTGAAA is higher in “PBM E-score” value: -0.0573 for the first, 0.187 for the second.

Going from ACAATGTG to ACATGCGT, the “PBM E-score” value falls from -0.00828 to -0.0424.

Compared with CCATTGGA, GATGTGTA is higher in “PBM E-score” value: -0.21 for the first, -0.0324 for the second.

Compared with CGACGGAC, AAAATGAA is lower in “PBM E-score” value: 0.151 for the first, 0.056 for the second.

Going from CATTTCGC to ATCAAGCG, the “PBM E-score” value falls from 0.135 to 0.0274.

First: CTTTGCGC
Second: AGATCTTA
The “PBM E-score” value of the first is lower: -0.134 for the first, 0.0519 for the second.

First: GCGCATTA
Second: CGTGATGC
The “PBM E-score” value of the first is lower: 0.0364 for the first, 0.0552 for the second.

Compared with CGGGATGC, CCGACGGC is higher in “PBM E-score” value: -0.0802 for the first, 0.146 for the second.

Compared with CTTGCGCA, GTTACTCA is lower in “PBM E-score” value: 0.0489 for the first, 0.0462 for the second.

First: AATAAGCG
Second: CCCGTAGC
The “PBM E-score” value of the first is higher: -0.0622 for the first, -0.122 for the second.

Compared with CTACACAC, AATTCACA is lower in “PBM E-score” value: 0.0205 for the first, -0.0127 for the second.

First: CAACGTTA
Second: GACGGGGC
The “PBM E-score” value of the first is higher: 0.0769 for the first, -0.13 for the second.

Going from TTACTAAA to CCTAGGCG, the “PBM E-score” value falls from 0.19 to -0.139.

Going from CGAAGTGC to GTATTCCA, the “PBM E-score” value falls from 0.188 to 0.0971.

Going from CGTGCAGC to ACACAACC, the “PBM E-score” value falls from 0.1 to -0.0873.
